Reference: publication PMC7862700
This is one part of the list. The exact form of the protein is not confirmed.

Target: T1, ETS1 (UniProt P14921)
T1 sequence: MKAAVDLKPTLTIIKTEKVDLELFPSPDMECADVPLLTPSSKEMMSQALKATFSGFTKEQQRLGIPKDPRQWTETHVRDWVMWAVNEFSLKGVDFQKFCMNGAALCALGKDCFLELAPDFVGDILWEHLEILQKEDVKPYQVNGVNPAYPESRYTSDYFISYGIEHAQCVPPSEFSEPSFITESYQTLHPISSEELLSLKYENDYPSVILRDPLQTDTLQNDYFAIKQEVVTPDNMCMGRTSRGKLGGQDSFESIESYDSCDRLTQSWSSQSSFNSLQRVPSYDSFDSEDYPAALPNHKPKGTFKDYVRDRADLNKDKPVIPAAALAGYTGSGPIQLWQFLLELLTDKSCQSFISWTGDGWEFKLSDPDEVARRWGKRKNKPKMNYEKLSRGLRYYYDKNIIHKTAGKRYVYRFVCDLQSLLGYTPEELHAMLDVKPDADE
Assay: DAPPL (digital affinity profiling via proximity ligation, sequencing)
Conditions: 10 mM Tris-HCl pH 7.5, 50 mM NaCl, 1 mM DTT, 4% glycerol, room temperature, 30 min; GST-TFs on glutathione beads, 16-mer random dsDNA library, 0.1% …; high values mean tight binding; double strand, one strand shown; scale: fold enrichment (6-mer frequency, TF over GST control)

Row | Sequence | binding signal
1 | TTTATT | 1.27
2 | ACTTTA | 1.19
3 | TATTAA | 1.23
4 | GTTCTA | 1.19
5 | TGGAAA | 1.08
6 | TAATGA | 1.08
7 | ATTATT | 1.22
8 | AACTTC | 2.52
9 | CCTTGG | 1.28
10 | ATGACT | 1.41
11 | GGCTAG | 1.16
12 | ACTCTT | 1.28
13 | CGTACT | 1.25
14 | ATGATA | 1.26
15 | CGATCC | 1.27
16 | AGCCTC | 1.33
17 | ATAATT | 1.35
18 | GAAATG | 1.67
19 | TCTGCT | 1.23
20 | AAAATT | 1.38

Row | Sequence | binding signal
21 | TCATTC | 1.27
22 | GGCCTA | 1.18
23 | TGACAC | 1.15
24 | CCGCAC | 1.53
25 | GCCGAC | 1.13
26 | ATTTAC | 1.33
27 | TCTTCA | 1.25
28 | GGGCTT | 1.22
29 | TGCAAA | 1.1
30 | ACAAGC | 1.19
31 | CCCTAA | 1.18
32 | GACTCT | 1.43
33 | ATTATG | 1.28
34 | TACTAC | 1.34
35 | TTGCGT | 1.12
36 | GCCTTG | 1.35
37 | CACATT | 1.21
38 | CTATGA | 1.09
39 | AAATGT | 1.34

Random excerpt: 2 entries already listed, in no set order.
Row | Sequence | binding signal
24 | CCGCAC | 1.53
34 | TACTAC | 1.34
